Values joined by “and” are separate entries in the source; they are usually repeats but may differ in a detail not shown here. Equal values may be shown once. This list was built around the results that the source calls inconclusive (neither active nor inactive); the mix of calls is not that of the screen. Potencies beside an inconclusive call are fits to weak or partial responses and may not hold up. Active and inactive are the calls of the source. Calls come from the whole dose curve; as a rule, active = well fitted curve in the direction sought with a large enough effect in the repeat runs; inconclusive = weak or mixed curves; inactive = no such curve, though single readings can be large; an effect the other way counts as inactive or inconclusive.
Target: Cytochrome P450 2C9 (Homo sapiens) (UniProt P11712)
Assay: Cytochrome P450 Family 2 Subfamily C Member 9 (CYP2C9) small molecule antagonists: luciferase reporter qHTS assay (AID 1671198)
Conditions: P450-Glo CYP2C9 enzyme assay, luciferin luminescence; series mostly up to 115 µM
Summary of the method: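 P450-Glo proluciferin substrate with CYP2C9 enzyme; 10 min RT preincubation, then NADPH regeneration 1 h at 37C; luciferin detection reagent 20 min RT, luminescence in relative luminescence units.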
Note: nearly all actives have a fitted effect of over 50% in size.
Potency is the fitted concentration of half-maximal effect.

Sequences of proteins named here, by UniProt entry; tags and fusion partners are left off. A change or cut given only in a name is not applied to a line headed by its entry.
UniProt P11712, whole entry, looked up: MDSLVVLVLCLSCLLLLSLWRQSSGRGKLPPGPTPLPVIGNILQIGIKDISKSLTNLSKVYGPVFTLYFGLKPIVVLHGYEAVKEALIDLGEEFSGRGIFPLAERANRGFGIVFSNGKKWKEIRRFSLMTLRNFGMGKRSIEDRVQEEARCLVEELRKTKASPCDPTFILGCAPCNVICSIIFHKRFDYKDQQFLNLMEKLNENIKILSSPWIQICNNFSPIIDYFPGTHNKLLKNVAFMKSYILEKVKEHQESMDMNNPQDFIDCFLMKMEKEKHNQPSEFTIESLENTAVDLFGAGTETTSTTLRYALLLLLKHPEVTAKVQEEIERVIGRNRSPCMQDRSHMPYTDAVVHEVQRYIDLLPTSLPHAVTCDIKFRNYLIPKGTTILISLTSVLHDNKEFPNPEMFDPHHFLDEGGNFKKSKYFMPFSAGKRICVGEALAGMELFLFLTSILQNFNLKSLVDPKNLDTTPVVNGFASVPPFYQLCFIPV
UniProt P05177, whole entry, looked up: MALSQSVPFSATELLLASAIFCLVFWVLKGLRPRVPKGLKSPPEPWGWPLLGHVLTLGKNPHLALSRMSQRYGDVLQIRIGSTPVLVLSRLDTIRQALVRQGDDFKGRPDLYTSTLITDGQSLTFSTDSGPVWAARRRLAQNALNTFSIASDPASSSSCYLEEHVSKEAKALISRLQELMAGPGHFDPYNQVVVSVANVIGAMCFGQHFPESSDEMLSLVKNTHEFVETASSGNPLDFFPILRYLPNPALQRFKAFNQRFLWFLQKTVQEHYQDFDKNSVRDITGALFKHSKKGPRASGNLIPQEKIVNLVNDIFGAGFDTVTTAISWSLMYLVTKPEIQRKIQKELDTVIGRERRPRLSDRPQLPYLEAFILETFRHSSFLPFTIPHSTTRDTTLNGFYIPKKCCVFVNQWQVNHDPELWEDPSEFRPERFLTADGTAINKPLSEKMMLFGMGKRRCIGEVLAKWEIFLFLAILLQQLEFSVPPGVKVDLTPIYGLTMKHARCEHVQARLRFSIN
UniProt Q12809: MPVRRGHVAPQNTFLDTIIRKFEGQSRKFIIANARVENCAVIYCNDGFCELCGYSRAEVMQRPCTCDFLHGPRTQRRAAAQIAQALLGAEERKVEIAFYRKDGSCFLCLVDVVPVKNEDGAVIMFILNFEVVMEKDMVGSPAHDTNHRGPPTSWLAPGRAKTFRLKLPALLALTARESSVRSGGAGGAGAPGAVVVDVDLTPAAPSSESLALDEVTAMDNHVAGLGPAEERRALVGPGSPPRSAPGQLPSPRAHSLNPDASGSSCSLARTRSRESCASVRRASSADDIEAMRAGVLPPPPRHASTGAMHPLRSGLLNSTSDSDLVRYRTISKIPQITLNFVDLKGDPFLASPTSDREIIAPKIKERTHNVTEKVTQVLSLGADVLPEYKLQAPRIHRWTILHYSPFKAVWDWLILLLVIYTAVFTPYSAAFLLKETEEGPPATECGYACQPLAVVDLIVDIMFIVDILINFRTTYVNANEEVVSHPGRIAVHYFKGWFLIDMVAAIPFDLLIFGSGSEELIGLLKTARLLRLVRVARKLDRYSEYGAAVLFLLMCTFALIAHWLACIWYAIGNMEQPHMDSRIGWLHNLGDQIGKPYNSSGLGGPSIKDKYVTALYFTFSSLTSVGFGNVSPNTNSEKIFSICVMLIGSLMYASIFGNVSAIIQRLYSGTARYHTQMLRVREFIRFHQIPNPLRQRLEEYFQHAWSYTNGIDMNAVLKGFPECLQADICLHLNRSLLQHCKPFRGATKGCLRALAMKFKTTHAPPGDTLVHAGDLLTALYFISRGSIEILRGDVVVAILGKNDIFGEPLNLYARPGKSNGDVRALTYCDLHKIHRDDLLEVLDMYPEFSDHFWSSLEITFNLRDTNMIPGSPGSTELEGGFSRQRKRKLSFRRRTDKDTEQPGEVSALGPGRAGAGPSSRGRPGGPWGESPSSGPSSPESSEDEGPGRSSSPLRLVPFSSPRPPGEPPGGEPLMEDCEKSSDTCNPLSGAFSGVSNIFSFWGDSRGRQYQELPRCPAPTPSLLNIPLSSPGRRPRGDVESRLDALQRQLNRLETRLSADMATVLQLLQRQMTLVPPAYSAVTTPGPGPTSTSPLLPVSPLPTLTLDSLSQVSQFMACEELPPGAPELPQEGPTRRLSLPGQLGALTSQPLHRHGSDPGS

Row | SMILES | Potency
1 | CCCCCCCCCCCCCC[N+](C)(C)C | inconclusive: 77 µM [inhibitor, single point] and inconclusive: 79.6 µM [inhibitor, single point]
2 | O=Cc1c2ccccc2c(Cl)c2ccccc12 | inconclusive: 3.09 µM [inhibitor, full curve, poor fit]
3 | Cc1nc2ccccn2c(=O)c1CCN1CCC(C(=O)c2ccc(F)cc2)CC1 | inactive
4 | CCC(=O)Nc1ccc(O)cc1 | inactive
5 | Nc1cccc2c(=O)[nH][nH]c(=O)c12 | inactive
6 | O=C(Oc1ccccc1)c1ccccc1O | inconclusive: 71.3 µM [inhibitor, partial curve]
7 | CC(Cc1cccc(C(F)(F)F)c1)NCCOC(=O)c1ccccc1 (centres undefined) | active: 27.5 µM
8 | C[C@@H]1CC[C@H]2C(C)(C)[C@H]3C[C@@]12CC[C@@]3(C)O | inconclusive: 17.8 µM [inhibitor, partial curve]
9 | O=c1[nH]nc(-c2ccc([N+](=O)[O-])o2)o1 | inconclusive: 63.3 µM [inhibitor, partial curve, poor fit]
10 | CN1C[C@H]2c3ccccc3Oc3ccc(Cl)cc3[C@@H]2C1 | inactive
11 | CN(C)c1ccc(C=O)cc1 | active: 35.6 µM
12 | O=C(Cl)c1cc(C(=O)Cl)cc(C(=O)Cl)c1 | active: 28.3 µM
13 | OC(CCl)CCl | inactive
14 | Nc1nnc(-c2ccc([N+](=O)[O-])o2)o1 | inconclusive: 71 µM [inhibitor, partial curve]
15 | CC(C)(C)OCC1CO1 (centres undefined) | inactive
16 | Fc1ccc(C(c2ccc(F)cc2)N2CCNCC2)cc1 | inactive
17 | CCCCC/C(=C\c1ccccc1)CO | active: 39.4 µM
18 | CC(=O)CC(=O)Nc1ccccc1C | inconclusive: 64 µM [inhibitor, partial curve] and inconclusive: 56.4 µM [inhibitor, partial curve]

Target: Cytochrome P450 1A2 (Homo sapiens) (UniProt P05177)
Assay: Cytochrome P450 Family 1 Subfamily A Member 2 (CYP1A2) small molecule antagonists: luciferase reporter qHTS assay (AID 1671199)
Conditions: P450-Glo CYP1A2 enzyme, luciferin luminescence, 1 h; series mostly up to 115 µM
Summary of the method: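 Luminescence readout (relative luminescence units) after luciferin detection reagent, 20 min RT. Preceded by 1 h room-temperature CYP1A2 reaction with NADPH regeneration solution following 10 min compound preincubation with enzyme and proluciferin substrate. Furafylline positive control.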

Row | SMILES | Potency
19 | COC(=O)c1cc(Cl)cc(Cl)c1 | inconclusive: 71 µM [inhibitor, partial curve]
20 | CCCC1CCOC(C)S1 (centres undefined) | inactive
21 | CCCCCCCCCCCCCC[N+](C)(C)C | inconclusive: 48.6 µM [inhibitor, partial curve] and inconclusive: 79.6 µM [inhibitor, single point] and inactive
22 | Cc1ccc2ccccc2n1 | inconclusive: 35.6 µM [inhibitor, partial curve, poor fit]
23 | CCCCCCCCCOC(=O)CCCCC(=O)OCCCCCCC | inconclusive: 39.9 µM [inhibitor, partial curve]
24 | Nc1cccc2c(=O)[nH][nH]c(=O)c12 | inconclusive: 31.9 µM [inhibitor, full curve]
25 | COc1cc(C(C)(C)C)c(O)c(C(C)(C)C)c1 | active: 39.9 µM
26 | CCCOC(C)=O | inactive
27 | C[C@@H]1CC[C@H]2C(C)(C)[C@H]3C[C@@]12CC[C@@]3(C)O | inconclusive: 63.2 µM [inhibitor, partial curve, poor fit]
28 | O=c1[nH]nc(-c2ccc([N+](=O)[O-])o2)o1 | active: 31.7 µM
29 | CN1C[C@H]2c3ccccc3Oc3ccc(Cl)cc3[C@@H]2C1 | active: 7.76 µM
30 | O=C(Cl)c1cc(C(=O)Cl)cc(C(=O)Cl)c1 | active: 39.9 µM
31 | OC(CCl)CCl | inconclusive: 72.8 µM [inhibitor] and inconclusive: 63.3 µM [inhibitor, partial curve]
32 | Fc1ccc(C(c2ccc(F)cc2)N2CCNCC2)cc1 | inactive
33 | CC(C)=CCC/C(C)=C/COC=O | inconclusive: 35.6 µM [inhibitor, partial curve]
34 | CN(C)CCN(Cc1ccccc1)c1ccccn1 | inconclusive: 34.7 µM [inhibitor, partial curve]
35 | CC(O)C#CC(C)O (centres undefined) | inconclusive: 39.5 µM [inhibitor, partial curve]
36 | CC(=O)CC(=O)Nc1ccccc1C | inconclusive: 40.4 µM [inhibitor, partial curve]

Target: Voltage-gated inwardly rectifying potassium channel KCNH2 (Homo sapiens) (UniProt Q12809)
Assay: Human Ether-a-go-go-Related Gene (hERG) channel small molecule antagonists: fluorescence cell-based qHTS assay (AID 1671200)
Conditions: hERG-U2OS cells, FluxOR thallium flux fluorescence; series mostly up to 76.8 µM
Summary of the method: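 Thallium flux as potassium surrogate: FluxOR II dye loaded 1 h at room temperature into hERG-expressing U2OS cells, then stimulus buffer added after 10 min. Kinetic 480 nm excitation/540 nm emission read, 2 min.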

Row | SMILES | Potency
37 | CCc1ccc(O)c(C(C)(C)C)c1 | inconclusive: 49 µM [inhibitor, partial curve, poor fit]
38 | Cc1nc2ccccn2c(=O)c1CCN1CCC(C(=O)c2ccc(F)cc2)CC1 | active: 9.52 µM
39 | Nc1cccc2c(=O)[nH][nH]c(=O)c12 | inconclusive: 19.6 µM [inhibitor, partial curve]
40 | COc1cc(C(C)(C)C)c(O)c(C(C)(C)C)c1 | inconclusive: 21.9 µM [inhibitor, partial curve]
41 | CCC1OCC(COc2ccc(Oc3ccccc3)cc2)O1 (centres undefined) | inconclusive: 49 µM [inhibitor, single point]
42 | O=C(Oc1ccccc1)c1ccccc1O | inconclusive: 49.2 µM [inhibitor, single point]
43 | CC(Cc1cccc(C(F)(F)F)c1)NCCOC(=O)c1ccccc1 (centres undefined) | active: 8.49 µM
44 | C[C@@H]1CC[C@H]2C(C)(C)[C@H]3C[C@@]12CC[C@@]3(C)O | inconclusive: 24.5 µM [inhibitor, partial curve]
45 | O=C(Cl)c1cc(C(=O)Cl)cc(C(=O)Cl)c1 | inconclusive: 54.9 µM [inhibitor, single point]
46 | CCCCC(CC)CN1C(=O)C2C3C=CC(C3)C2C1=O (centres undefined) | inconclusive: 54.9 µM [inhibitor, single point]
47 | Fc1ccc(C(c2ccc(F)cc2)N2CCNCC2)cc1 | inconclusive: 19 µM [inhibitor, partial curve]
48 | CN(C)CCN(Cc1ccccc1)c1ccccn1 | active: 9.52 µM
49 | CCCCC/C(=C\c1ccccc1)CO | inconclusive: 54.3 µM [inhibitor, partial curve]
